{"source": "PubChem BioAssay AID1347426", "about": "(Functional Genomics Laboratory (NCATS/FGL), 2020)", "note": "The campaign covered roughly 31,000 sequences. About 1,400 (4.5%) were called active.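 Rule for the calls: active = median seed-adjusted z-score above 1 or below -1; inactive = the rest.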 This is one part of the list."}
{"assay": "Novel Modifiers of Survival Motor Neuron (SMN) Protein: Gene Identification via Genome-wide siRNA Screen;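 note: luminescence tracks full-length SMN protein made from the SMN2 reporter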", "settings": "HEK293T SMN2-luciferase reporter, siRNA knockdown, 72 h; actives lie on both sides", "procedure,_shortened": "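HEK293T cells stably expressing an SMN2 splicing/cDNA-luciferase reporter were reverse-transfected with a druggable-genome siRNA library and read by luminescence at 72 hours; hits defined by MAD score above 1.0 or below -1.0.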"}
{"sequence": "GUCAGUCCCUUUGACCAUATT against PTPN1", "median seed-adjusted z-score": "inactive: 0.05"}
{"sequence": "GGCACUUCAUGUUCCGGAATT against DYRK1B", "median seed-adjusted z-score": "inactive: 0.29"}
{"sequence": "ACGUGGAAGUGACCCGGAATT against MTX1", "median seed-adjusted z-score": "inactive: -0.159"}
{"sequence": "CCAAUGCAAUCAUUAAUGATT against NRXN1", "median seed-adjusted z-score": "inactive: 0.433"}
{"sequence": "GCACCUGCUUAAUCGCGAATT against ACY3", "median seed-adjusted z-score": "inactive: 0.568"}
{"sequence": "GUGCCCAACAAGUAUCUAATT against SEMA6C", "median seed-adjusted z-score": "inactive: 0.321"}
{"sequence": "GGAGGCAUUUGAAGUUCCATT against FARP1", "median seed-adjusted z-score": "inactive: -0.487"}
{"sequence": "GGUUGGUUACUUUUCGAUATT against IQCH", "median seed-adjusted z-score": "inactive: 0"}
{"sequence": "GAAGAGAACUCUAAGAUCATT against CAMK1G", "median seed-adjusted z-score": "inactive: -0.358"}
{"sequence": "CCACGAGGAUGCGAACAGATT against SPOCK1", "median seed-adjusted z-score": "inactive: -0.596"}
{"sequence": "GCUCUUGCCUGAACCAGUUTT against GDPD3", "median seed-adjusted z-score": "inactive: -0.0754"}
{"sequence": "AGUCAGAAUCCGUGAGUUATT against FPR1", "median seed-adjusted z-score": "inactive: 0.0229"}
{"sequence": "CGAUGACUCAUUACCCAAUTT against STK17B", "median seed-adjusted z-score": "inactive: -0.971"}
{"sequence": "GGCACUACCGGAGAACUAATT against CNTN2", "median seed-adjusted z-score": "inactive: 0"}
{"sequence": "CGAAGAUCCCUGUUUUGCATT against KIF1B", "median seed-adjusted z-score": "inactive: 0.376"}
{"sequence": "GAAGAGAUCCUGAUUGUGATT against ZNF500", "median seed-adjusted z-score": "inactive: 0"}
{"sequence": "GUGUCUCAGCUAAUCCAAATT against ATP5G3", "median seed-adjusted z-score": "inactive: 0"}
{"sequence": "GCAUCUCAAUAUCAACAAUTT against LINGO2", "median seed-adjusted z-score": "inactive: 0.123"}
{"sequence": "GCAAUUUCCUGCAACCAGUTT against STK33", "median seed-adjusted z-score": "inactive: -0.168"}
{"sequence": "GUGAUGAUGUGAUCGAAUUTT against PDIA6", "median seed-adjusted z-score": "inactive: -0.269"}
{"sequence": "CGCGUUCUUCGAUAUGGUATT against PCDHGB6", "median seed-adjusted z-score": "inactive: 0.34"}
{"sequence": "GAGUAUAAGGUGAAGUUUUTT against SDF4", "median seed-adjusted z-score": "inactive: -0.422"}
{"sequence": "GCAAGAUCCCAAAUCAGCATT against ADAT1", "median seed-adjusted z-score": "inactive: 0.404"}
{"sequence": "CUCUGAUUACAAACGCAUATT against C5", "median seed-adjusted z-score": "inactive: 0.153"}
{"sequence": "GAAUGAUUCUUUCAAUCAUTT against MS4A1", "median seed-adjusted z-score": "inactive: 0.414"}
{"sequence": "GCCCAGAGACUAUUCAGUATT against SF3A3", "median seed-adjusted z-score": "active: -2.1"}
{"sequence": "ACAUCGACGGUCAAGGCAATT against GATA3", "median seed-adjusted z-score": "inactive: -0.197"}
{"sequence": "GGACAAAUAAAUUUGUAAATT against NYX", "median seed-adjusted z-score": "inactive: 0.0685"}
{"sequence": "GGAGAUCCCAGAUAAAUGUTT against FCRL1", "median seed-adjusted z-score": "inactive: -0.873"}
{"sequence": "GUUCUGCAAUAAGAGGCAATT against POU6F2", "median seed-adjusted z-score": "inactive: 0.416"}
{"sequence": "GCUCGGCUAUGACCCUUAUTT against TPST2", "median seed-adjusted z-score": "inactive: -0.682"}
{"sequence": "CAAGUGACACUGUACUUUATT against GUCY2D", "median seed-adjusted z-score": "inactive: 0"}
{"sequence": "CAGGCUACAGUGAACAGAATT against GNL1", "median seed-adjusted z-score": "inactive: 0.154"}
{"sequence": "GGCGUAGUUUUGAAACUCATT against MBD3", "median seed-adjusted z-score": "inactive: 0.708"}
{"sequence": "CUACAGAUGUCGAGGUUUUTT against KIR2DL4", "median seed-adjusted z-score": "inactive: -0.271"}
{"sequence": "CUGACAGUCUACUAAGUUATT against RGS7", "median seed-adjusted z-score": "inactive: 0.415"}
{"sequence": "GCUUAGACUUGUUCCAACATT against PSMD9", "median seed-adjusted z-score": "inactive: 0.266"}
{"sequence": "GCACGACAGAUUAUAACCATT against ARHGAP21", "median seed-adjusted z-score": "inactive: 0.229"}
{"sequence": "GCCCAGCACACGAUGCUUATT against TCIRG1", "median seed-adjusted z-score": "inactive: 0.123"}
{"sequence": "CCACCUGCACCUUAGAAUATT against GRM4", "median seed-adjusted z-score": "inactive: -0.71"}
{"sequence": "CCACAAAUGUUUCAACCGATT against IPO11", "median seed-adjusted z-score": "inactive: -0.245"}
{"sequence": "GCAACCACCUAUAUCCUCATT against P2RY10", "median seed-adjusted z-score": "inactive: -0.432"}
{"sequence": "GGAUCUGCUUUCGAACCUATT against MBOAT1", "median seed-adjusted z-score": "active: -1.22"}
{"sequence": "UGGUCUUCACAACUCGUUATT against KDELR2", "median seed-adjusted z-score": "inactive: 0"}
{"sequence": "CUUGAGAUCUGUCAACAGATT against VPS41", "median seed-adjusted z-score": "inactive: 0.52"}
{"sequence": "GGACUACAAGGGUUCCGAUTT against RTEL1", "median seed-adjusted z-score": "inactive: 0.458"}
{"sequence": "GCACGGUGCAAGGACAUCATT against RNH1", "median seed-adjusted z-score": "inactive: 0.55"}
{"sequence": "ACUAAGAGGUGAACAUGUATT against PAK4", "median seed-adjusted z-score": "inactive: -0.742"}
{"sequence": "GAAUGUUACUUUAUCAUGATT against RAB40B", "median seed-adjusted z-score": "inactive: -0.31"}
{"sequence": "CCAUGAUUAAGGGUCUUUATT against LDHA", "median seed-adjusted z-score": "inactive: 0.401"}
{"sequence": "GCAAGAUUAGACAUACUGATT against PSMC6", "median seed-adjusted z-score": "inactive: -0.578"}
{"sequence": "GAAAAUCGACUCUCAUAAATT against 2-Sep", "median seed-adjusted z-score": "inactive: 0.0349"}
{"sequence": "AGACUGAACUCCGAACAGATT against SSH3", "median seed-adjusted z-score": "inactive: -0.0772"}
{"sequence": "GAACUGCUAUGAUGAUUCUTT against RHAG", "median seed-adjusted z-score": "inactive: -0.212"}
{"sequence": "GCACUGGUGUUGAAUGACATT against DAG1", "median seed-adjusted z-score": "inactive: -0.104"}
{"sequence": "CCCUCAACGUGACCAAGGATT against CSF2RB", "median seed-adjusted z-score": "inactive: -0.454"}
{"sequence": "CAAAGUACCGAGUCGAAUATT against SENP7", "median seed-adjusted z-score": "inactive: 0.547"}
{"sequence": "GAUAUACGAGGGAACAGAATT against SLITRK4", "median seed-adjusted z-score": "inactive: -0.015"}
{"sequence": "CAACAAUGCUGGUUCUGAUTT against MBL2", "median seed-adjusted z-score": "inactive: -0.252"}
{"sequence": "CUACGUACCCUGCUACUGATT against SLC4A3", "median seed-adjusted z-score": "inactive: -0.7"}
{"sequence": "CGACGAUCACAGAUACAAATT against TBX5", "median seed-adjusted z-score": "inactive: 0.143"}
{"sequence": "GGUUUCCGAGUACCGCUGATT against HBQ1", "median seed-adjusted z-score": "inactive: -0.578"}
